The source of these data is PMC8627604.

Sequences of proteins named here, by UniProt entry; tags and fusion partners are left off. Residues count along the entry.
UniProt P46531, residues 19-2555: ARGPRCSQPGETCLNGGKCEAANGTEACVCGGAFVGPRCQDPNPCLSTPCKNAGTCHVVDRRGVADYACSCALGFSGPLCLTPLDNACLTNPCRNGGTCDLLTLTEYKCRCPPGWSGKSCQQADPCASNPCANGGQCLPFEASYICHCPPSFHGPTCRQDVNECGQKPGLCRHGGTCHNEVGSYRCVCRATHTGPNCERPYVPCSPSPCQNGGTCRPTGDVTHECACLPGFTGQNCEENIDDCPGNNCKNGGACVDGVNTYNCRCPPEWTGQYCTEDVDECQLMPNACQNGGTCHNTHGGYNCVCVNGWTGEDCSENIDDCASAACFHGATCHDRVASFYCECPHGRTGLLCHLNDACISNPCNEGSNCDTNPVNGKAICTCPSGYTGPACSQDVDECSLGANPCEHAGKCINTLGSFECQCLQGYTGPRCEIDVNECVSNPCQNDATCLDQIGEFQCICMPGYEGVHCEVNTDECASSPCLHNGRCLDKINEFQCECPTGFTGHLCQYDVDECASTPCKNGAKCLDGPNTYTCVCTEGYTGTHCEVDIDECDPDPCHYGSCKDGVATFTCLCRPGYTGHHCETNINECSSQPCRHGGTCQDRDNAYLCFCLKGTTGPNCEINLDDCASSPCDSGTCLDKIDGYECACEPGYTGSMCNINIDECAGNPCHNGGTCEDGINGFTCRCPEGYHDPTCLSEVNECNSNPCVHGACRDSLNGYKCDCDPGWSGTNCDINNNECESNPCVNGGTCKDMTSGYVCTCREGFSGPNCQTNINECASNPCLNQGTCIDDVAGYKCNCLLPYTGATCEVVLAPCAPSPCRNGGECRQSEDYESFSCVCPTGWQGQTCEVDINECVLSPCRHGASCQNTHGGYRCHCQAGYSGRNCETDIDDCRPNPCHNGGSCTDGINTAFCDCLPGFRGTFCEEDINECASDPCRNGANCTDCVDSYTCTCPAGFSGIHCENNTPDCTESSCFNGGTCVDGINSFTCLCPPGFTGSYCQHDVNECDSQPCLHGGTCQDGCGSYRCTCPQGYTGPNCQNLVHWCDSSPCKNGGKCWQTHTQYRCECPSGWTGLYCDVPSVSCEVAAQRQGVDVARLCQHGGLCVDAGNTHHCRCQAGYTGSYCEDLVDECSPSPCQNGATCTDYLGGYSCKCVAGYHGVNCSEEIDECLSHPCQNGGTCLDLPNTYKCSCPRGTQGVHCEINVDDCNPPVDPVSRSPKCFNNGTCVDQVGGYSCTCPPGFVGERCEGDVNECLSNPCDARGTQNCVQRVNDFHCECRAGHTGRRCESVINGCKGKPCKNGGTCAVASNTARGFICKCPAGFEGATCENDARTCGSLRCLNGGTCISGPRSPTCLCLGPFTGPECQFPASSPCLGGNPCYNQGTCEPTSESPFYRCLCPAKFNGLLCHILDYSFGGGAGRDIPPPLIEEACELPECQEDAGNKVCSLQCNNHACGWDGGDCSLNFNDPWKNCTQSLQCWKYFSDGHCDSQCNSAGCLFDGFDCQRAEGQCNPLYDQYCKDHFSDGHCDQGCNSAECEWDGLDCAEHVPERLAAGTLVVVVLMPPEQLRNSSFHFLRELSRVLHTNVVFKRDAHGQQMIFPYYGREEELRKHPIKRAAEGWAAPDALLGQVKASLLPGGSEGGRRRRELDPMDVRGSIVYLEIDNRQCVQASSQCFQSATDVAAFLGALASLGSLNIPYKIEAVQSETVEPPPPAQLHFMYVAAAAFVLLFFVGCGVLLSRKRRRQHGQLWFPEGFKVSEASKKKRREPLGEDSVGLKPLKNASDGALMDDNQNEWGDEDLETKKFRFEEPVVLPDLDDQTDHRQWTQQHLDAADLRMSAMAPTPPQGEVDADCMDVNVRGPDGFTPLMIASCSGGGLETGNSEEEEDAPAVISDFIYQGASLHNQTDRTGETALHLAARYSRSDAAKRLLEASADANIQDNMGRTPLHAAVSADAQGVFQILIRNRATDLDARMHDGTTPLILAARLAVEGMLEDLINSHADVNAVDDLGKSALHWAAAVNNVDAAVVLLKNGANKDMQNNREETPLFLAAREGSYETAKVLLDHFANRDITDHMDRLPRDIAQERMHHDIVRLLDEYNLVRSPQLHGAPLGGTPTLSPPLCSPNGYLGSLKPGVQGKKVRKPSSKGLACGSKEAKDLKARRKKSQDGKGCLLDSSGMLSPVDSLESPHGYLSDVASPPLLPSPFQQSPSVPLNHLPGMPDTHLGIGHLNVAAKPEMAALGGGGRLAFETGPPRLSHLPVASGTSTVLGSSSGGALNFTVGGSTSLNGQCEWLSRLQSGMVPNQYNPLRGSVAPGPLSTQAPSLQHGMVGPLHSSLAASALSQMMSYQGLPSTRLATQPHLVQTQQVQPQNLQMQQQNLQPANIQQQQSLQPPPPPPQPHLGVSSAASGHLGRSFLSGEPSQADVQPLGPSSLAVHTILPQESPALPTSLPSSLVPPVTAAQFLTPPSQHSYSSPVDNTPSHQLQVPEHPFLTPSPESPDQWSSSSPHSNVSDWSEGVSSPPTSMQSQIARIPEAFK

Assay [1] addresses T1, Growth arrest-specific 1 (GAS1) (human (endogenous in iPSC-derived NPCs)) (UniProt P54826).
T1 sequence: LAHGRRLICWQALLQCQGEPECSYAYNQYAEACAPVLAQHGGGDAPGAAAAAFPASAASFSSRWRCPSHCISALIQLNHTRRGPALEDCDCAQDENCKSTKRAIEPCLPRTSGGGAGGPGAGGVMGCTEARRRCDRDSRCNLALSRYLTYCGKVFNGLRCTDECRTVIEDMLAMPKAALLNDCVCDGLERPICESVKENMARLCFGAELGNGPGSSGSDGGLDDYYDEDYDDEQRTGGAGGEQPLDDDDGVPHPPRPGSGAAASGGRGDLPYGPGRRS
Put plainly: co-IP; total protein lysates from wild-type NPCs; 10 ug/ml goat anti-GAS1 antibody (AF2636, R&D Systems) or non-immune goat IgG control; Pierce Crosslink Magnetic IP/Co-IP Kit; detection by blot.

Assay [2] concerns the target T1, Growth arrest-specific 1 (GAS1) (human (endogenous in iPSC-derived NPCs)). Put plainly: proximity ligation; fixed and permeabilized wild-type NPCs; primary antibodies directly conjugated with oligonucleotides (Duolink In Situ Probemaker), rolling circle amplification (Duolink In Situ Detection Reagent Kit Orange); GAS1 KO cells as control.
Assay [3] shares this target. The description is as above. This is another data set of the same source.

These are yes or no findings as the source states them, for the method shown. Binding seen in cells or lysates may run through a third protein. Some binding calls cover weakened binding; strength is not graded here.

“NOTCH receptor 1 (NOTCH1) (from UniProt P46531 19-2555)”: the binding entry in assay [1] and in assay [2] was “binds” in each case.

B1: Patched 1 (PTCH1) (receptor, UniProt Q13635 1-1447)
chain: MASAGNAAEPQDRGGGGSGCIGAPGRPAGGGRRRRTGGLRRAAAPDRDYLHRPSYCDAAFALEQISKGKATGRKAPLWLRAKFQRLLFKLGCYIQKNCGKFLVVGLLIFGAFAVGLKAANLETNVEELWVEVGGRVSRELNYTRQKIGEEAMFNPQLMIQTPKEEGANVLTTEALLQHLDSALQASRVHVYMYNRQWKLEHLCYKSGELITETGYMDQIIEYLYPCLIITPLDCFWEGAKLQSGTAYLLGKPPLRWTNFDPLEFLEELKKINYQVDSWEEMLNKAEVGHGYMDRPCLNPADPDCPATAPNKNSTKPLDMALVLNGGCHGLSRKYMHWQEELIVGGTVKNSTGKLVSAHALQTMFQLMTPKQMYEHFKGYEYVSHINWNEDKAAAILEAWQRTYVEVVHQSVAQNSTQKVLSFTTTTLDDILKSFSDVSVIRVASGYLLMLAYACLTMLRWDCSKSQGAVGLAGVLLVALSVAAGLGLCSLIGISFNAATTQVLPFLALGVGVDDVFLLAHAFSETGQNKRIPFEDRTGECLKRTGASVALTSISNVTAFFMAALIPIPALRAFSLQAAVVVVFNFAMVLLIFPAILSMDLYRREDRRLDIFCCFTSPCVSRVIQVEPQAYTDTHDNTRYSPPPPYSSHSFAHETQITMQSTVQLRTEYDPHTHVYYTTAEPRSEISVQPVTVTQDTLSCQSPESTSSTRDLLSQFSDSSLHCLEPPCTKWTLSSFAEKHYAPFLLKPKAKVVVIFLFLGLLGVSLYGTTRVRDGLDLTDIVPRETREYDFIAAQFKYFSFYNMYIVTQKADYPNIQHLLYDLHRSFSNVKYVMLEENKQLPKMWLHYFRDWLQGLQDAFDSDWETGKIMPNNYKNGSDDGVLAYKLLVQTGSRDKPIDISQLTKQRLVDADGIINPSAFYIYLTAWVSNDPVAYAASQANIRPHRPEWVHDKADYMPETRLRIPAAEPIEYAQFPFYLNGLRDTSDFVEAIEKVRTICSNYTSLGLSSYPNGYPFLFWEQYIGLRHWLLLFISVVLACTFLVCAVFLLNPWTAGIIVMVLALMTVELFGMMGLIGIKLSAVPVVILIASVGIGVEFTVHVALAFLTAIGDKNRRAVLALEHMFAPVLDGAVSTLLGVLMLAGSEFDFIVRYFFAVLAILTILGVLNGLVLLPVLLSFFGPYPEVSPANGLNRLPTPSPEPPPSVVRFAMPPGHTHSGSDSSDSEYSSQTTVSGLSEELRHYEAQQGAGGPAHQVIVEATENPVFAHSTVVHPESRHHPPSNPRQQPHLDSGSLPPGRQGQQPRRDPPREGLWPPPYRPRRDAFEISTEGHSGPSNRARWGPRGARSHNPRNPASTAMGSSVPGYCQPITTVTASASVTVAVHPPPVPGPGRNPRGGLCPGYPETDHGLFEDPHVPFHVRCERRDSKVEVIELQDVECEERPRGSSSN
With B1, the binding result in assay [1] and in assay [3] was “binds” in each case.
